Reference: the supplement of paper PMC10849652
The list shows a part of the results.

Chains of the proteins cited; added tags and fusions are not shown. Lines headed by an entry give the natural chain unless they say otherwise; changes in a name come on top.
UniProt Q9NWS8: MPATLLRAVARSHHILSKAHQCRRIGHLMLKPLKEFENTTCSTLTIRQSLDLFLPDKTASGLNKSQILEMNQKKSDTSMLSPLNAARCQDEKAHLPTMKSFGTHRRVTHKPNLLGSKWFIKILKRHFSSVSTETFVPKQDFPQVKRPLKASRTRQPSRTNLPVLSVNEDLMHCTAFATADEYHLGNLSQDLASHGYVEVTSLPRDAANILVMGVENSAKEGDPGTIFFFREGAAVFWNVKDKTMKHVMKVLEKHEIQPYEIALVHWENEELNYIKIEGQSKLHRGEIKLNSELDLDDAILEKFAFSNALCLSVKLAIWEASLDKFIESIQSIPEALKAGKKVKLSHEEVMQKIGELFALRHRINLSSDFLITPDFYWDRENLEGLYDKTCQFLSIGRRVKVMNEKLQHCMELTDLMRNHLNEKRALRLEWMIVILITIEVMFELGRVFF
UniProt Q5TBB1: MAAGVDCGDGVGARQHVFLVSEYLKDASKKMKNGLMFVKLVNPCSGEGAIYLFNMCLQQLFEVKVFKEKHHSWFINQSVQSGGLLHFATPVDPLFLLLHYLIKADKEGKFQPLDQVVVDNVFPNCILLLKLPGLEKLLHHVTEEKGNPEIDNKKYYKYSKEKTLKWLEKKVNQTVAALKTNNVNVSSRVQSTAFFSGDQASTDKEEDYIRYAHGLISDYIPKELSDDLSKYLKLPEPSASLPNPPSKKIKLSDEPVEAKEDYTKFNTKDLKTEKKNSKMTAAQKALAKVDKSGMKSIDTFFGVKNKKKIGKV
UniProt Q5XPI4: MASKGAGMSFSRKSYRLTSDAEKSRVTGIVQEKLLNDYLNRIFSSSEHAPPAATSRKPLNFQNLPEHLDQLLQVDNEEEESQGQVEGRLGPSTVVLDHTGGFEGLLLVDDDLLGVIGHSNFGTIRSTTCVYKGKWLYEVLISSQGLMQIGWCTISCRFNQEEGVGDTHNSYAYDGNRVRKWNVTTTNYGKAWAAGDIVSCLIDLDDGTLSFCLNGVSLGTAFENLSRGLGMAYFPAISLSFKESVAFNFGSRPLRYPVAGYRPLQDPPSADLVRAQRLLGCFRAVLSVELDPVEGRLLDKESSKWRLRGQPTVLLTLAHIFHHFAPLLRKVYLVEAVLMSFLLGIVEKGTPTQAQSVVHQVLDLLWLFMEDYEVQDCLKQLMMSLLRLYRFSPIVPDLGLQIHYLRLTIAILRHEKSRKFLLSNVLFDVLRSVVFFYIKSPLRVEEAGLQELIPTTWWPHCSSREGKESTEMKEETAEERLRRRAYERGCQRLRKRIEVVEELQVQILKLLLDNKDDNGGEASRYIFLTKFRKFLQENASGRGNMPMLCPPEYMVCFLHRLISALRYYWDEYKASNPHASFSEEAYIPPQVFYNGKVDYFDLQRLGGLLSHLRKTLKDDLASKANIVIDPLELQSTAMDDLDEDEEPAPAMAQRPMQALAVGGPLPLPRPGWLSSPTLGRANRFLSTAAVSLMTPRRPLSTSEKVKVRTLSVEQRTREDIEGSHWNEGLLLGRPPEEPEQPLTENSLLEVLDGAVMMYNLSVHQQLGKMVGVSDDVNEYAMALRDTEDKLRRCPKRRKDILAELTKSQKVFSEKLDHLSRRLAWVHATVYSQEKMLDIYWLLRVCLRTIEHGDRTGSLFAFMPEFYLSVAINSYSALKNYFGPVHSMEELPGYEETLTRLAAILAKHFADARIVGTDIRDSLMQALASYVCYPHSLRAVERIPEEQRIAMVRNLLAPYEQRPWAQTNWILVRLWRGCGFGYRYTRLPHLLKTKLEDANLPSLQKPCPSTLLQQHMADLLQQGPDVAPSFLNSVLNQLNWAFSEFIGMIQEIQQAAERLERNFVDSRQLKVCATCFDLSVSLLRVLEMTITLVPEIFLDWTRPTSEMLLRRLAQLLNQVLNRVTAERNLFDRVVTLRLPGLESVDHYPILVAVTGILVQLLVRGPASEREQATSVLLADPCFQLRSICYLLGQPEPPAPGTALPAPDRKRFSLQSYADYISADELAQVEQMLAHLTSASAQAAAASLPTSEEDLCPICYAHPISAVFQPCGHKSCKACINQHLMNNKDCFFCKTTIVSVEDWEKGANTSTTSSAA
UniProt Q9Y508: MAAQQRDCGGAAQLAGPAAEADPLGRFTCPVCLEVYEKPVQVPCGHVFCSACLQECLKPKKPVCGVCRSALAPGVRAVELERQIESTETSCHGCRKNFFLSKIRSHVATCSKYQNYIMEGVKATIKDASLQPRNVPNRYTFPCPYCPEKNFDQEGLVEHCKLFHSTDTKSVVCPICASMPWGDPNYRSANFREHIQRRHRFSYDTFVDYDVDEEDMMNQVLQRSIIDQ
UniProt P08922: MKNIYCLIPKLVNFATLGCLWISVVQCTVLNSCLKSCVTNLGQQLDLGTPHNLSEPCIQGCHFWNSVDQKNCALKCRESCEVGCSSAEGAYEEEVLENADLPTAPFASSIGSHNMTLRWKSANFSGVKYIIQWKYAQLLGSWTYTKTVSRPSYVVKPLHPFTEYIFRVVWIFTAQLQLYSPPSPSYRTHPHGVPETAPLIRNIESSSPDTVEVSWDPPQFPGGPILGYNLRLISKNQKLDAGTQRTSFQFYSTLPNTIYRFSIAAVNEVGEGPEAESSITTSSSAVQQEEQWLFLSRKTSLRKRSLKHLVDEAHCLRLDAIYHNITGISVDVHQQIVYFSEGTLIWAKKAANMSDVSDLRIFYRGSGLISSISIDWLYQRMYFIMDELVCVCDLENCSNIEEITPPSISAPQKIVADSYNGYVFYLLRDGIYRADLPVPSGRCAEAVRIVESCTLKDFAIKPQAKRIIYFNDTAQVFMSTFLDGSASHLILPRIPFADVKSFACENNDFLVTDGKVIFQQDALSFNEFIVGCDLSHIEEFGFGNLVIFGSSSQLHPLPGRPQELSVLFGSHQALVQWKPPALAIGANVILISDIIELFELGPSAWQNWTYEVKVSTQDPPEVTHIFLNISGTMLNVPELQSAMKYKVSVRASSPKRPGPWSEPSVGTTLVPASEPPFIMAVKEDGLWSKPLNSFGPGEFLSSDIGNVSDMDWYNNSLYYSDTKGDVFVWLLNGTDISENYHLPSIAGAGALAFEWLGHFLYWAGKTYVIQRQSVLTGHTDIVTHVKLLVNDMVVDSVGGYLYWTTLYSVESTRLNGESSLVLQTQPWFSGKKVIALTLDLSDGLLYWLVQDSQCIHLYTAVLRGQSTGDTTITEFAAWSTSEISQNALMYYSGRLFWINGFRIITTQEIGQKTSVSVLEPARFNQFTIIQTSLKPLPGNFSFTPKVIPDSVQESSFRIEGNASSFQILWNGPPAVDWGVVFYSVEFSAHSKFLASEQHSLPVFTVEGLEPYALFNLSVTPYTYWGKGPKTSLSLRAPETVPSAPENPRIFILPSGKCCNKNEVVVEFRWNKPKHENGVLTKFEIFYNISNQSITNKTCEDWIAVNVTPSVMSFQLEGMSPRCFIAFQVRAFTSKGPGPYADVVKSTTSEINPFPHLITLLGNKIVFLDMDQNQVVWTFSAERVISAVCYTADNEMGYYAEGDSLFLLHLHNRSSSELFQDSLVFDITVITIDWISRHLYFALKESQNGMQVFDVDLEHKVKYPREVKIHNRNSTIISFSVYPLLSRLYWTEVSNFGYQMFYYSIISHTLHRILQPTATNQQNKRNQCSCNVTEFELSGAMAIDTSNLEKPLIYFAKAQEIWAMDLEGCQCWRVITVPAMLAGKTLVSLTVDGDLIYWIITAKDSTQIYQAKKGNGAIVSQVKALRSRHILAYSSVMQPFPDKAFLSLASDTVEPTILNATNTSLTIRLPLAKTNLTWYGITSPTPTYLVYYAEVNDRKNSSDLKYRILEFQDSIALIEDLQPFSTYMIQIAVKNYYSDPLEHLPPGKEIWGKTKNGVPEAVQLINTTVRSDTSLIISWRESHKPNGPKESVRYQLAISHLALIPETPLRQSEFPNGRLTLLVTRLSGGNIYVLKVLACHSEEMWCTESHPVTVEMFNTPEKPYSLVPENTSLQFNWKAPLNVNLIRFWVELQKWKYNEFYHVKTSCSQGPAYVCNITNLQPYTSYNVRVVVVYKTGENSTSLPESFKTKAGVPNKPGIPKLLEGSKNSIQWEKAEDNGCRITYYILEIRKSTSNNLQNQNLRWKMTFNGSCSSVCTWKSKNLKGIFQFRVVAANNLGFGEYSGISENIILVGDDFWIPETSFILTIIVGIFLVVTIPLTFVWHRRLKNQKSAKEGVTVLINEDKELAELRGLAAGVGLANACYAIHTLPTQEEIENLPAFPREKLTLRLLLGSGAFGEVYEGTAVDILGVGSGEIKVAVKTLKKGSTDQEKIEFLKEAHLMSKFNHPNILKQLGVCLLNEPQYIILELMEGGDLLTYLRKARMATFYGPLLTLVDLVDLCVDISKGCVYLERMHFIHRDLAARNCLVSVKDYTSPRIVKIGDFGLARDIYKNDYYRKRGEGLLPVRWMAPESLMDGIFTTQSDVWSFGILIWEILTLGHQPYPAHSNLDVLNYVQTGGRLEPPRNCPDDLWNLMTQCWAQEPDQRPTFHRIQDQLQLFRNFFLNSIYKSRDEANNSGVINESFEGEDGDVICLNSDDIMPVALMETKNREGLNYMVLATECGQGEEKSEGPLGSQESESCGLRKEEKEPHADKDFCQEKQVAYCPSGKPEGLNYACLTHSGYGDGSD
UniProt Q9H6W3: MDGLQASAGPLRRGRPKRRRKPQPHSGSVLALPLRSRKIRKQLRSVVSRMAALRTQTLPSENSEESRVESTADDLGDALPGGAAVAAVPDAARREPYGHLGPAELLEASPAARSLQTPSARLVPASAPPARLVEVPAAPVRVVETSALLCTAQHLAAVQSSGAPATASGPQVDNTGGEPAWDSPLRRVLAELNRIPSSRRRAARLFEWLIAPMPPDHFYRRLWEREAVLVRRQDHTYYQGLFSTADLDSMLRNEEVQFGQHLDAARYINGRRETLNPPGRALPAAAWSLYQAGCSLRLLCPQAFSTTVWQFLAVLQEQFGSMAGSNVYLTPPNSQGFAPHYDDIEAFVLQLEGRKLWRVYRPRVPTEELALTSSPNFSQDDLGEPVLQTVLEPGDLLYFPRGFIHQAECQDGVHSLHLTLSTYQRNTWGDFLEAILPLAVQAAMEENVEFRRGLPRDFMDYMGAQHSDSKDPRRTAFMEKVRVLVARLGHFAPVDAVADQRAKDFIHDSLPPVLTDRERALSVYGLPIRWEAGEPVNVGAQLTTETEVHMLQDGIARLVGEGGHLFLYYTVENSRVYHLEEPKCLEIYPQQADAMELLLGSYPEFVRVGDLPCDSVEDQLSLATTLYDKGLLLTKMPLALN
UniProt Q9UBF6, whole entry, looked up: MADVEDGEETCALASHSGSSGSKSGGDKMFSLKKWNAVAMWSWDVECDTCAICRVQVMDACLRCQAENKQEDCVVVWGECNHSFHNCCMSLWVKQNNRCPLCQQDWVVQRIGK
UniProt P0C7M4: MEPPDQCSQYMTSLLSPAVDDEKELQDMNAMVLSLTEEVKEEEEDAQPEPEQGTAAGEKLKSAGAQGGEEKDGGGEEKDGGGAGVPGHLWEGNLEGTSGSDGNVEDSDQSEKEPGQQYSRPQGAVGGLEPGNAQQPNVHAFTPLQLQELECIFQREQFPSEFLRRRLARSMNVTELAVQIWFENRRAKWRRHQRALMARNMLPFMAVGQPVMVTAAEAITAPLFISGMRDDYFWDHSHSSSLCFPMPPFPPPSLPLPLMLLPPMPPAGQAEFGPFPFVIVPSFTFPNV
UniProt Q8WVD3: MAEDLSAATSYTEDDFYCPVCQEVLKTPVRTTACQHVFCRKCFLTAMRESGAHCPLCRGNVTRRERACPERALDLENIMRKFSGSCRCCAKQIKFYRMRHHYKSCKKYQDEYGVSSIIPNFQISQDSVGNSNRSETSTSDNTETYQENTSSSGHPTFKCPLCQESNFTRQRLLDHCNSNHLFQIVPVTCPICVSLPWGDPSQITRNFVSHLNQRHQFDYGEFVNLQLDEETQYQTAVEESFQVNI
UniProt P34096: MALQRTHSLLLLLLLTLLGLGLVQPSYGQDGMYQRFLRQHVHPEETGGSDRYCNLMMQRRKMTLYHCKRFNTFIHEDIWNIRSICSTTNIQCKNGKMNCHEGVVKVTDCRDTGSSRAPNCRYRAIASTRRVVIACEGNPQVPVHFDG
UniProt P60602: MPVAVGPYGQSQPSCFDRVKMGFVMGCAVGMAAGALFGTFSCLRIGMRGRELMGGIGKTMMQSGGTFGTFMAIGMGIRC

Assays:
Assay in all cases: log2 fold change, soluble protein after heating vs DMSO (PISA); higher = thermal stabilisation; K562 lysate, 10 uM; active = over 0.2 and 3.5 SD of the protein, either way, in both replicates (recomputed)
[1] = compound: CCCS(=O)(=O)Nc1ccc(F)c(C(=O)c2c[nH]c3ncc(-c4ccc(Cl)cc4)cc23)c1F [vemurafenib]
Summary of the method: (§1)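 The values are log-two fold changes in thermal stability compared with solvent controls and come from duplicates. They were obtained by TMTpro 16plex LC-MS/MS, with channel sums equalised, on the supernatant after 21,000xg for 90 min. That supernatant came from crude K562 extract at 1 mg/mL protein treated with 10 μM compound for 30 min, heated for 3 min across 48°C-58°C, pooled and brought to 0.5% NP-40 at 4°C.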

[2] = compound: CCCS(=O)(=O)Nc1ccc(F)c(C(=O)c2c[nH]c3ncc(Cl)cc23)c1F
Summary of the method: as §1

[3] = compound: CCN(CCCOc1ccc2c(Nc3cc(CC(=O)Nc4cccc(F)c4)[nH]n3)ncnc2c1)CCOP(=O)(O)O [barasertib]
Summary of the method: as §1

[4] = compound: CC[C@@H]1C(=O)N(C)c2cnc(Nc3ccc(C(=O)NC4CCN(C)CC4)cc3OC)nc2N1C1CCCC1
Summary of the method: as §1

[5] = compound: CC[C@@H]1C(=O)N(C)c2cnc(Nc3ccc(C(=O)N[C@H]4CC[C@H](N5CCN(CC6CC6)CC5)CC4)cc3OC)nc2N1C(C)C [volasertib]
Summary of the method: as §1

[6] = compound: CCn1c(C(=O)N(C2CC2)C2CC2)cc2c3c(ncn3C)c(Nc3cc(C)n(C)n3)nc21
Summary of the method: as §1

[7] = compound: CCn1cc(-c2ccnc3[nH]c(-c4cccc(CN(C)C)c4)cc23)c(-c2ccc(NC(=O)N(C)C)cc2)n1
Summary of the method: as §1

[8] = compound: CN1CCC(CNc2ccc3ncc(-c4cccc(OC(F)(F)F)c4)n3n2)CC1
Summary of the method: as §1

[9] = compound: CN1CCN(CCOc2cc(OC3CCOCC3)c3c(Nc4c(Cl)ccc5c4OCO5)ncnc3c2)CC1 [saracatinib]
Summary of the method: as §1

[10] = compound: CN1CCN(c2nc(C3=C(c4c[nH]c5ccccc45)C(=O)NC3=O)c3ccccc3n2)CC1 [sotrastaurin]
Summary of the method: as §1

[11] = compound: CN1CC[C@H](c2c(O)cc(O)c3c(=O)cc(-c4ccccc4Cl)oc23)[C@H](O)C1 [alvocidib]
Summary of the method: as §1

[12] = compound: CN1CCc2c(c3ccccc3n2Cc2ccc(C(=O)NO)cc2)C1 [Tubastatin A]
Summary of the method: as §1

[13] = compound: CNC(=O)C1=CC=CC=C1NC2=NC(=NC=C2Cl)NC3=C(C=C(C=C3)N4CCOCC4)OC
Summary of the method: as §1

[14] = compound: CNC(=O)c1ccc(Nc2ncc(C(F)(F)F)c(NCc3nccnc3N(C)S(C)(=O)=O)n2)cc1 [defactinib]
Summary of the method: as §1

[15] = compound: CNc1nc(-c2ccc3c(N)n[nH]c3c2)cc(N2C[C@@H](C(=O)NC3CCCCC3)CC[C@H]2C)n1
Summary of the method: as §1

[16] = compound: COC(=O)N[C@@H](C)CNc1nccc(-c2cn(C(C)C)nc2-c2cc(Cl)cc(NS(C)(=O)=O)c2F)n1 [encorafenib]
Summary of the method: as §1

[17] = compound: COC(=O)[C@H](CCSC)NC(=O)C1=C(C=C(C=C1)NC[C@H](CS)N)C2=CC=CC=C2
Summary of the method: as §1

[18] = compound: COc1cc(Nc2ncc3c(n2)-c2ccc(Cl)cc2C(c2c(F)cccc2OC)=NC3)ccc1C(=O)O [alisertib]
Summary of the method: as §1

[19] = compound: COc1cc2nc(-c3cc(F)ccc3O)nc(N[C@@H]3CNC[C@H]3C(C)(C)O)c2cc1OC
Summary of the method: as §1

[20] = compound: COc1cc2ncnc(Nc3ccc(F)c(Cl)c3)c2cc1OCCCN1CCOCC1 [gefitinib]
Summary of the method: as §1

Target | log2 fold change [1] | log2 fold change [2] | log2 fold change [3] | log2 fold change [4] | log2 fold change [5] | log2 fold change [6] | log2 fold change [7] | log2 fold change [8] | log2 fold change [9] | log2 fold change [10] | log2 fold change [11] | log2 fold change [12] | log2 fold change [13] | log2 fold change [14] | log2 fold change [15] | log2 fold change [16] | log2 fold change [17] | log2 fold change [18] | log2 fold change [19] | log2 fold change [20]
RIC1 (UniProt Q4ADV7) | inactive: -0.055 | inactive: 0.021 | inactive: -0.013 | inactive: 0.029 | inactive: 0.009 | inactive: 0.017 | inactive: -0.29 | inactive: 0.004 | inactive: -0.012 | inactive: -0.008 | inactive: 0.014 | inactive: -0.051 | inactive: 0.029 | inactive: -0.12 | inactive: 0.02 | inactive: 0.037 | inactive: -0.13 | inactive: 0.017 | inactive: -0.073 | inactive: 0.024
RMND1 (UniProt Q9NWS8) | inactive: -0.02 | inactive: -0.023 | inactive: -0.001 | inactive: 0.05 | inactive: -0.019 | inactive: 0.046 | inactive: -0.035 | inactive: 0.013 | inactive: 0.029 | inactive: 0.029 | inactive: 0 | inactive: 0.045 | inactive: 0.045 | inactive: 0.007 | inactive: -0.033 | inactive: -0.006 | inactive: 0.029 | inactive: -0.055 | inactive: 0.035 | inactive: 0.023
RNASEH2B (UniProt Q5TBB1) | inactive: -0.008 | inactive: 0.034 | inactive: -0.035 | inactive: -0.056 | inactive: -0.044 | inactive: -0.001 | inactive: 0.026 | inactive: -0.101 | inactive: -0.022 | inactive: 0.062 | inactive: 0.05 | inactive: -0.046 | inactive: -0.003 | inactive: 0.092 | inactive: -0.021 | inactive: 0.035 | active: 0.338 | inactive: -0.031 | inactive: -0.038 | inactive: -0.031
RNF123 (UniProt Q5XPI4) | inactive: 0.034 | inactive: 0.003 | inactive: 0.019 | inactive: -0.009 | inactive: -0.048 | inactive: 0.035 | inactive: -0.045 | inactive: 0.004 | inactive: -0.006 | inactive: 0.03 | inactive: 0.011 | inactive: -0.047 | inactive: -0.002 | inactive: -0.027 | inactive: 0.017 | inactive: 0.044 | inactive: -0.062 | inactive: -0.004 | inactive: 0.017 | inactive: 0.011
RPL21 (UniProt P46778) | inactive: 0.019 | inactive: 0.024 | inactive: -0.045 | inactive: 0.037 | inactive: -0.003 | inactive: -0.045 | inactive: -0.002 | inactive: 0.026 | inactive: 0.008 | inactive: 0.002 | inactive: -0.013 | inactive: 0.055 | inactive: -0.042 | inactive: -0.024 | inactive: 0.096 | inactive: -0.027 | inactive: 0.028 | inactive: 0.036 | inactive: 0.002 | inactive: -0.057
RPAP2 (UniProt Q8IXW5) | inactive: 0.02 | inactive: 0.013 | inactive: -0.035 | inactive: 0.011 | inactive: 0.009 | inactive: -0.069 | inactive: -0.031 | inactive: 0.01 | inactive: -0.028 | inactive: 0.05 | inactive: 0.007 | inactive: -0.027 | inactive: -0.007 | inactive: 0.03 | inactive: -0.041 | inactive: 0.007 | inactive: 0.014 | inactive: 0.005 | inactive: 0.012 | inactive: 0.047
RNF114 (UniProt Q9Y508) | inactive: -0.002 | inactive: 0.016 | inactive: -0.026 | inactive: 0.051 | inactive: 0.038 | inactive: -0.001 | inactive: 0.028 | inactive: 0 | inactive: 0.014 | inactive: -0.102 | inactive: -0.021 | inactive: 0.06 | inactive: 0.052 | inactive: -0.037 | inactive: 0.039 | inactive: 0.005 | inactive: -0.06 | inactive: 0.032 | inactive: -0.004 | inactive: -0.136
ROS1 (UniProt P08922) | inactive: 0.027 | inactive: -0.04 | inactive: 0.195 | inactive: 0.1 | inactive: 0.008 | inactive: -0.052 | inactive: -0.124 | inactive: 0.006 | inactive: -0.04 | inactive: -0.056 | inactive: -0.179 | inactive: 0.148 |  | inactive: -0.175 | inactive: -0.051 | inactive: -0.013 | inactive: 0.018 | inactive: 0.104 | inactive: 0.031 | inactive: -0.051
RIOX1 (UniProt Q9H6W3) | inactive: -0.185 | inactive: -0.097 |  | inactive: -0.274 | inactive: 0.15 | inactive: 0.034 | inactive: -0.155 | inactive: -0.01 | inactive: 0.014 | inactive: 0.059 | inactive: 0.057 | inactive: -0.097 | inactive: 0.035 | inactive: 0.013 | inactive: 0.033 | inactive: 0.011 | inactive: 0.11 | inactive: 0.151 | inactive: 0.008 | inactive: 0.11
RNF7 (UniProt Q9UBF6) | inactive: -0.02 | inactive: 0.047 | inactive: 0.052 | inactive: 0.093 | inactive: -0.007 | inactive: -0.027 | inactive: -0.049 | inactive: 0.067 | inactive: -0.053 | inactive: -0.108 | inactive: -0.071 | inactive: 0.074 | inactive: -0.011 | inactive: -0.016 | inactive: 0.061 | inactive: -0.153 | inactive: 0.037 | inactive: -0.048 | inactive: 0.016 | inactive: -0.114
RHOXF2B (UniProt P0C7M4) | inactive: 0.123 | inactive: -0.015 |  |  | inactive: 0.043 | inactive: 0.016 |  |  | inactive: 0.061 |  |  | inactive: -0.031 | inactive: 0.138 | inactive: 0.086 | inactive: -0.038 |  |  |  | inactive: 0.029 | 
RPL17 isoform 3 (UniProt P18621) | inactive: -0.026 | inactive: 0.002 | inactive: -0.073 | inactive: 0.044 | inactive: -0.022 | inactive: -0.003 | inactive: 0.037 | inactive: -0.02 | inactive: 0.005 | inactive: -0.015 | inactive: 0.031 | inactive: 0.017 | inactive: 0.001 | inactive: 0.047 | inactive: 0.007 | inactive: 0.004 | inactive: -0.018 | inactive: -0.001 | inactive: -0.023 | inactive: -0.048
RNF138 (UniProt Q8WVD3) | inactive: 0.092 |  | inactive: -0.007 | inactive: 0.078 |  | inactive: 0.014 | inactive: -0.02 | inactive: 0.007 | inactive: 0.032 | inactive: 0.068 | inactive: -0.078 | inactive: -0.124 |  | inactive: -0.047 | inactive: -0.009 | inactive: 0.074 | inactive: -0.316 | inactive: 0.009 |  | inactive: -0.001
RNASE4 (UniProt P34096) | inactive: 0.124 | inactive: -0.01 |  | inactive: 0.029 | inactive: -0.005 | inactive: -0.044 |  |  | inactive: 0.128 | inactive: 0.103 |  | inactive: 0.053 | inactive: 0.06 | inactive: -0.039 | inactive: -0.091 | inactive: -0.036 | inactive: 0.126 | inactive: -0.055 | inactive: 0.087 | inactive: -0.012
ROMO1 (UniProt P60602) | inactive: -0.093 | inactive: -0.007 |  | inactive: -0.02 | inactive: 0.012 | inactive: 0.43 |  |  | inactive: -0.024 | inactive: 0.008 |  | inactive: -0.254 | inactive: -0.133 | inactive: 0.018 | inactive: 0.06 | inactive: -0.003 | inactive: -0.051 | inactive: -0.11 | inactive: -0.089 | inactive: 0.066
RPL30 (UniProt P62888) | inactive: -0.029 | inactive: 0.028 | inactive: -0.029 | inactive: -0.023 | inactive: 0 | inactive: -0.044 | inactive: -0.037 | inactive: 0.04 | inactive: -0.003 | inactive: -0.011 | inactive: -0.021 | inactive: 0.028 | inactive: -0.007 | inactive: 0.016 | inactive: -0.013 | inactive: 0.029 | inactive: 0.006 | inactive: -0.002 | inactive: -0.002 | inactive: -0.008
RPA1 (UniProt P27694) | inactive: -0.016 | inactive: 0.03 | inactive: 0.006 | inactive: 0 | inactive: -0.003 | inactive: 0.001 | inactive: 0.114 | inactive: -0.099 | inactive: -0.016 | inactive: -0.006 | inactive: 0.04 | inactive: 0.001 | inactive: 0.004 | inactive: -0.006 | inactive: 0.015 | inactive: -0.002 | inactive: 0.001 | inactive: 0.009 | inactive: 0 | inactive: 0.041

Limited to log2 fold change [6], log2 fold change [2] and log2 fold change [9], for some of the entries so far:
Target,log2 fold change [6],log2 fold change [2],log2 fold change [9]
RNASEH2B (UniProt Q5TBB1),inactive: -0.001,inactive: 0.034,inactive: -0.022
RNF123 (UniProt Q5XPI4),inactive: 0.035,inactive: 0.003,inactive: -0.006
